Where a chain is given by its changes, count along the chain named. These are yes or no findings as the source states them, for the method shown. For part of these data: Binding seen in cells or lysates may run through a third protein. Some entries that bind do so weakly or less than the wild type. Tags and fused reporters may be left off the sequences shown. Each block holds one binder with its values, some of them ahead of it.
What was measured:
Details in all cases: remark: other sources report otherwise
[1] = target: Flag-SMAD3, P84022; experiment: TR-FRET, HEK293T cell lysate, anti-Flag-Tb donor / anti-His-D2 acceptor
[2] = target: SMAD3 (prey in the GST pull-down), P84022; experiment: GST beads pull-down from cell lysate
[3] = target: SMAD2, Q15796; experiment: TR-FRET with compound titration (Ro-31-8220, Go-6983)

- binding [1]: binds
B1: His-SMAD4WT, Q13485 1-552 (protein, not shown: small tags and cut ends)
chain: MDNMSITNTPTSNDACLSIVHSLMCHRQGGESETFAKRAIESLVKKLKEKKDELDSLITAITTNGAHPSKCVTIQRTLDGRLQVAGRKGFPHVIYARLWRWPDLHKNELKHVKYCQYAFDLKCDSVCVNPYHYERVVSPGIDLSGLTLQSNAPSSMMVKDEYVHDFEGQPSLSTEGHSIQTIQHPPSNRASTETYSTPALLAPSESNATSTANFPNIPVASTSQPASILGGSHSEGLLQIASGPQPGQQQNGFTGQPATYHHNSTTTWTGSRTAPYTPNLPHHQNGHLQHHPPMPPHPGHYWPVHNELAFQPPISNHPAPEYWCSIAYFEMDVQVGETFKVPSSCPIVTVDGYVDPSGGDRFCLGQLSNVHRTEAIERARLHIGKGVQLECKGEGDVWVRCLSDHAVFVQSYYLDREAGRAPGDAVHKIYPSAYIKVFDLRQCHRQMQQQAATAQAAAAAQAAAVAGNIPGPGSVGGIAPAISLSAAAGIGVDDLRRLCILRMSFVKGWGPDYPRQSIKETPCWIEIHLHRALQLLDEVLHTMPIADPQPLD

- binding [2]: binds
B2: GST-SMAD4WT, Q13485 1-552 (protein, not shown: a dimerising Fc or GST)
chain: B1 chain

- binding [3]: binds
B3: His-SMAD4R361H, Q13485 1-552 (protein, not shown: small tags and cut ends)
chain: B1 chain with R361H

From patent publication US20230201173A1, “SMAD4 Complex Inducers and Uses in Cancer Therapy” (Emory University, priority 2021, published 2023)
